33 molecules from the supplement of paper PMC12823440, “Inhibitors supercharge kinase turnover through native proteolytic circuits” (Nature, 2025) can be followed below.

By UniProt entry, the sequences of proteins in these tests, tags left out.
UniProt P49137, whole entry, looked up: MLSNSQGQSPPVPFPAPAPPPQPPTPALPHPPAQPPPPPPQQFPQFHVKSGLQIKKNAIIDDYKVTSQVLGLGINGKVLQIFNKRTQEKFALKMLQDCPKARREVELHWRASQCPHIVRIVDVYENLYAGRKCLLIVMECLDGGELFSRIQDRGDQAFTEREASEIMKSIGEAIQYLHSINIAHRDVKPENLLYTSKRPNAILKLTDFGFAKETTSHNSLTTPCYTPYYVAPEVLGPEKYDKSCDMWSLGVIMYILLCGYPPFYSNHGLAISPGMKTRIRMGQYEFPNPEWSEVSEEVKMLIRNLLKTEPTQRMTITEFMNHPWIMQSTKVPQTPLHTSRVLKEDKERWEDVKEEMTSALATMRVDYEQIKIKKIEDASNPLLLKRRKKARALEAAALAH

Where a name gives a salt, the structure may show the parent alone. The list shows a part of the results. Hit calls seldom repeat between salt and free forms of one compound.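 Kinases were expressed as nanoluciferase fusions in K562 cells and luminescence was read every 4 h between 2 and 18 h as percent of control, DMSO set to 100% and a positive control to 0%. A time point counts as decreased when the signal drops significantly (2 sigma). The hit call is the authors' own, does not follow from the count of time points alone, and its rule is not shown.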

The target of this assay is MAPKAPK2 (UniProt P49137). The assay can be described thus: number of time points (of 5) at which kinase-Nluc abundance scored as decreased, DMSO-normalised (count); higher = more persistent destabilization. The settings on record: K562; 2-18 h.
With `CN1CCN(c2cc(-c3ccncc3)c(-c3ccc4ccccc4c3)nn2)CC1` (10 µM), the “number of time points” value was 0.
`CC(O)(C#Cc1ccc2c(c1)N(c1nc(N)ncc1Cl)CC2)c1nccs1` (stereo not drawn) (2.5 µM): the “number of time points” value was 0.
For `COc1ccc(Nc2ncc(C(F)(F)F)c(NC3CC3)n2)cc1OC` (10 µM) the value was 0; for `O=c1cc(N2CCOCC2)oc2c(-c3ccc4c(c3)OCCO4)csc12` (2.5 µM), 0.
In the case of `N[C@@H]1CCCN(c2c(/C=C3\SC(=O)NC3=O)cccc2-c2ccccc2)C1` (10 µM), the “number of time points” value was found to be 0.
As to `N#Cc1ccc(-c2cnc3[nH]cc(NC(=O)c4cccnc4)c3c2)cc1` (10 µM), the “number of time points” value is 0.
Consider `COc1ccc(Br)cc1NC(=O)Nc1cccc2c1ccn2Cc1ccnc(N)c1` (2.5 µM), for which the “number of time points” value was 0.
As to `COc1cc(N2CCOCC2)ccc1Nc1ncc(F)c(Nc2ccccc2NS(C)(=O)=O)n1` (10 µM), the “number of time points” value was determined as 0.
As for `COc1ccc(-c2cc(=O)c3c(OC)cc(OC)c(OC)c3o2)cc1` [6-Demethoxytangeretin] (10 µM), the “number of time points” value turned out to be 0.
In the case of `COc1cc2c(cc1O)C[C@H]1c3cc(O)c(OC)cc3CC[N@@+]1(C)C2` [Phellodendrine] (10 µM), the “number of time points” value was 0.
On to `CO[C@H]1C[C@@H]2CC[C@@H](C)[C@@](O)(O2)C(=O)C(=O)N2CCCC[C@H]2C(=O)O[C@H]([C@H](C)C[C@@H]2CC[C@@H](OC(=O)C(C)(CO)CO)[C@H](OC)C2)CC(=O)[C@H](C)/C=C(\C)[C@@H](O)[C@@H](OC)C(=O)[C@H](C)C[C@H](C)/C=C/C=C/C=C/1C` [Temsirolimus] (2.5 µM), for which the “number of time points” value turned out to be 0.
Regarding `O=C(ON=C1c2ccccc2-c2nc3ccccc3nc21)c1ccco1` (2.5 µM), the “number of time points” value is 0.
Take `COc1ccc(S(=O)(=O)Nc2cc(-c3c(O)ccc4ccccc34)c(O)c3ccccc23)cc1` (10 µM): the “number of time points” value was determined as 0.
As to `Cc1cccc(COc2cccc(/C=C3\C(=O)NN(c4ccccc4)C3=O)c2)c1` (10 µM), the “number of time points” value stood at 0.
On to `CC(C)Oc1ccc(F)c(-c2cnc(N)c(C(=O)Nc3cnccc3N3CCC[C@@H](C(=O)O)C3)n2)c1` (2 µM), for which the “number of time points” value was 0.
As for `COc1cc(F)ccc1-c1ncnc(Nc2cccc(C[S@](C)(=N)=O)c2)n1` [Atuveciclib] (2.5 µM), the “number of time points” value stood at 0.
The figure for `CC(C)n1ncnc1-c1cn2c(n1)-c1ccc(O[C@@H](C)C(N)=O)cc1OCC2` (10 µM) is 0; for `Cn1c(CNc2cccc(C(=O)NCc3ccccc3C(F)(F)F)c2)nnc1-c1ccncc1` (10 µM) it is 0; for `O=Nc1c(-c2c(O)[nH]c3cc(Br)ccc23)[nH]c2ccccc12` [GSK 3 Inhibitor IX] (2.5 µM) it is 0.
The figure for `Nc1ncc(C(=O)NC2CN(C(=O)C3CC3)C2)c2ccc(-c3cccc(F)c3)nc12` (2 µM) is 0.
In the case of `O=C(Nc1cc(Cl)cc2c1[nH]c1cnccc12)c1cccnc1` (10 µM), the “number of time points” value turned out to be 0.
As to `c1ccc(Cn2c(-c3ccc(OC[C@H](C4CCNCC4)n4c(-c5ccccc5)nc5ccccc54)cc3)nc3ccccc32)cc1` [Deltarasin] (2.5 µM), the “number of time points” value worked out at 0.
Turning to `COc1cc2ncnc(Nc3cccc(I)c3)c2cc1OC` (2.5 µM), the “number of time points” value amounted to 0.
Consider `Clc1ccc(C(c2ccc(Cl)cc2)[n+]2ccn(CC(OCc3ccc(Cl)cc3Cl)c3ccc(Cl)cc3Cl)c2)cc1` (stereo not drawn) [Calmidazolium chloride] (2.5 µM), for which the “number of time points” value came out at 0.
With `O=C(Nc1cccnc1)c1cc(-c2ccnc(F)c2)ccc1OCc1ccccc1` (10 µM), the “number of time points” value is 0.
`c1nn(C2CCOCC2)cc1Nc1ncc2nnn(-c3ccc4cn[nH]c4c3)c2n1` (10 µM): the “number of time points” value is 0.
Turning to `COC(=O)[C@H](CCSC)NC(=O)c1ccc(NC[C@@H](N)CS)cc1-c1ccccc1` [FTI-277 (hydrochloride)] (10 µM), the “number of time points” value was 0.
For `Cc1cc(Nc2cc(N)ncn2)c(=O)n2c1C(=O)NC21CCCCC1` [Tomivosertib] (10 µM), the “number of time points” value was 0.
For the molecule `CCc1c[nH]c2ncnc(N3CC[C@](N)(CNC(=O)c4ccc(F)cc4F)C3)c12` (10 µM), the “number of time points” value is 0.
On to `Nc1ncnc2c1nc(Br)n2[C@@H]1O[C@@H]2COP(=O)(O)O[C@H]2[C@H]1O` [8-Bromo-cAMP sodium salt] (10 µM), for which the “number of time points” value came out at 0.
For `CC(C)n1c(=O)n(C)c2cnc3cc(F)c(-c4ccc(OCCCN5CCCCC5)nc4)cc3c21` (10 µM) the value was 0; for `Cc1ccc(C)c(OCCn2cc(C(=O)O)c3ccccc32)c1` (10 µM), 0.
`COCCOc1ccc2c(c1)ncn2-c1ccc2cccc(N3CCC(N)CC3)c2n1` (10 µM): the “number of time points” value was determined as 0.
